Data as given in PubChem BioAssay AID504764 (Drosophila RNAi Screening Center, 2011).
Aim: 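Genome-wide screen for regulators of Notch-driven gene expression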 (primary screen). Cell system: Drosophila Kc167 cells. Knock-down reagent: long dsRNA against Drosophila genes. Time to read-out: about 5 days (4 days dsRNA, then 24 h after transfection). Conditions: transfection of constitutively active membrane-tethered Notch lacking the extracellular domain, read 24 h later. Measured: 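Light from a Notch-responsive E(spl)m3 luciferase reporter under active Notch, with control-promoter and no-Notch reporter wells to normalise; raw counts from paired wells a and b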. Scale: induced reporter light, run 1, well a and induced reporter light, run 1, well b: higher = more light from the Notch target reporter with active Notch; control promoter light, run 1, well a and control promoter light, run 1, well b: higher = more light from the viral control promoter (cell number, transfection, viability); uninduced reporter light, run 1, well a: higher = more light from the Notch target reporter without active Notch. Rule for the call: 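Hit if the duplicate-averaged log2 ratio of induced to control-promoter light gives a plate-wise z beyond ±2, or induced to uninduced beyond ±1.8; weak-control or discordant-duplicate wells dropped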. Calls: active = modifier hit (raised or lowered Notch signal); inactive = not a hit.
In all, the deposit lists about 22,000 reagents; shown is a random part of those with a known target gene and a result. Of all reagents, 403 (1.9%) were called active. 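Unnormalised raw counts per well; ratio z-scores behind the hit calls and whether each hit raises or lowers signal are not deposited.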 The numbers tell different reagents against one gene apart. No sequences are given here. Not given: the amount of reagent.

RpL23 (Ribosomal protein L23) scored induced reporter light, run 1, well a = 28050; induced reporter light, run 1, well b = 22575; control promoter light, run 1, well a = 30085; control promoter light, run 1, well b = 29055; uninduced reporter light, run 1, well a = 1782; inactive.
tin (tinman) #1 scored induced reporter light, run 1, well a = 2.64e5; induced reporter light, run 1, well b = 2.05e5; control promoter light, run 1, well a = 2.35e5; control promoter light, run 1, well b = 2.69e5; uninduced reporter light, run 1, well a = 18695; inactive.
With knock-down of tin (tinman) #2 the results were inactive.
Knock-down of Eglp1 (Entomoglyceroporin 1) resulted in: induced reporter light, run 1, well a = 93870; induced reporter light, run 1, well b = 96300; control promoter light, run 1, well a = 67025; control promoter light, run 1, well b = 70740; uninduced reporter light, run 1, well a = 6575; inactive.
For Imp (IGF-II mRNA-binding protein) #1, the entry reads induced reporter light, run 1, well a = 75025; induced reporter light, run 1, well b = 1.10e5; control promoter light, run 1, well a = 1.12e5; control promoter light, run 1, well b = 93035; uninduced reporter light, run 1, well a = 5955; inactive.
Imp (IGF-II mRNA-binding protein) #2 scored induced reporter light, run 1, well a = 1.33e5; induced reporter light, run 1, well b = 1.17e5; control promoter light, run 1, well a = 1.76e5; control promoter light, run 1, well b = 1.70e5; uninduced reporter light, run 1, well a = 9832; inactive.
For Pex13 (Peroxin 13), the values are induced reporter light, run 1, well a = 1.60e5; induced reporter light, run 1, well b = 1.60e5; control promoter light, run 1, well a = 1.22e5; control promoter light, run 1, well b = 1.54e5; uninduced reporter light, run 1, well a = 13225; inactive.
Against ine (inebriated), the entry reads induced reporter light, run 1, well a = 1.49e5; induced reporter light, run 1, well b = 1.78e5; control promoter light, run 1, well a = 1.76e5; control promoter light, run 1, well b = 1.73e5; uninduced reporter light, run 1, well a = 14725; inactive.
After knock-down of glob1 (globin 1) the results were induced reporter light, run 1, well a = 2.49e5; induced reporter light, run 1, well b = 2.76e5; control promoter light, run 1, well a = 3.70e5; control promoter light, run 1, well b = 3.78e5; uninduced reporter light, run 1, well a = 16250; inactive.
For CG15927 the deposit lists induced reporter light, run 1, well a = 68770; induced reporter light, run 1, well b = 75150; control promoter light, run 1, well a = 81325; control promoter light, run 1, well b = 53135; uninduced reporter light, run 1, well a = 4010; active.
Silencing of CG14000 resulted in: induced reporter light, run 1, well a = 1.51e5; induced reporter light, run 1, well b = 1.04e5; control promoter light, run 1, well a = 1.33e5; control promoter light, run 1, well b = 1.21e5; uninduced reporter light, run 1, well a = 9675; inactive.
For retn (retained), the entry reads induced reporter light, run 1, well a = 1.79e5; induced reporter light, run 1, well b = 1.50e5; control promoter light, run 1, well a = 1.45e5; control promoter light, run 1, well b = 1.49e5; uninduced reporter light, run 1, well a = 9792; inactive.

2 entries from above, arranged by “induced reporter light, run 1, well a”, descending:
glob1 (globin 1) → induced reporter light, run 1, well a: 2.49e5; induced reporter light, run 1, well b: 2.76e5; control promoter light, run 1, well a: 3.70e5; control promoter light, run 1, well b: 3.78e5; uninduced reporter light, run 1, well a: 16250; Call: inactive
ine (inebriated) → induced reporter light, run 1, well a: 1.49e5; induced reporter light, run 1, well b: 1.78e5; control promoter light, run 1, well a: 1.76e5; control promoter light, run 1, well b: 1.73e5; uninduced reporter light, run 1, well a: 14725; Call: inactive
